The record followed here is the supplement of paper PMC10849652.

Amino acid sequences for entries named in this document (tags omitted). A change or cut given only in a name is not applied to a line headed by its entry.
UniProt Q9UGK8: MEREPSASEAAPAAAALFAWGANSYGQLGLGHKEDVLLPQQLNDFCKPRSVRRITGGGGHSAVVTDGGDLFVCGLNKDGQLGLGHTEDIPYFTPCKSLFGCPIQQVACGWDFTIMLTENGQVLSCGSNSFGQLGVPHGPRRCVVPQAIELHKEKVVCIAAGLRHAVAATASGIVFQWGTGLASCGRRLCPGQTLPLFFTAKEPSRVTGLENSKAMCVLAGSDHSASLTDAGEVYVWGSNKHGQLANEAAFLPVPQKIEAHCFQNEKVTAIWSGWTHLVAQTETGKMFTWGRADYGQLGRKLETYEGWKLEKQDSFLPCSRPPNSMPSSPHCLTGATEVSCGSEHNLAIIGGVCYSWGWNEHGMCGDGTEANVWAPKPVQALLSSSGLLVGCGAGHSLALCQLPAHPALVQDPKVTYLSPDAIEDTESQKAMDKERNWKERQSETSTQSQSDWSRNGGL
UniProt O43765: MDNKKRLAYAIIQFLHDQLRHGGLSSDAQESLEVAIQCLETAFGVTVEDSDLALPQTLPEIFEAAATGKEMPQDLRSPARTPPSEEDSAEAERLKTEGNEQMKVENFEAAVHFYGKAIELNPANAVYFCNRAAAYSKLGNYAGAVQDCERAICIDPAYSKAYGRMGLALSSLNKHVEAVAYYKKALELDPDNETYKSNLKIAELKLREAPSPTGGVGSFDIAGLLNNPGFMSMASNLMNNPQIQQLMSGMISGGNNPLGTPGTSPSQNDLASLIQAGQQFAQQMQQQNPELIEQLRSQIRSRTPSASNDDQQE
UniProt P50453: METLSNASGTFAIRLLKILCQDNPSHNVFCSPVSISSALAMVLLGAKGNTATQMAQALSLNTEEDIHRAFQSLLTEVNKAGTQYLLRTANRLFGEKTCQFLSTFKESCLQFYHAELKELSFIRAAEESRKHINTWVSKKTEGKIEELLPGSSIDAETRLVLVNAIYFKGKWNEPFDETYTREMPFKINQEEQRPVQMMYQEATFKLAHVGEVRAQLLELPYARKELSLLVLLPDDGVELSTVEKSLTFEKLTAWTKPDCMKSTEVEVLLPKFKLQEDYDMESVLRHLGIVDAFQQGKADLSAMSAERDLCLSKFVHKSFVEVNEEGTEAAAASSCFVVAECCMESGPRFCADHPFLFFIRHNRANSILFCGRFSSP
UniProt Q9H173: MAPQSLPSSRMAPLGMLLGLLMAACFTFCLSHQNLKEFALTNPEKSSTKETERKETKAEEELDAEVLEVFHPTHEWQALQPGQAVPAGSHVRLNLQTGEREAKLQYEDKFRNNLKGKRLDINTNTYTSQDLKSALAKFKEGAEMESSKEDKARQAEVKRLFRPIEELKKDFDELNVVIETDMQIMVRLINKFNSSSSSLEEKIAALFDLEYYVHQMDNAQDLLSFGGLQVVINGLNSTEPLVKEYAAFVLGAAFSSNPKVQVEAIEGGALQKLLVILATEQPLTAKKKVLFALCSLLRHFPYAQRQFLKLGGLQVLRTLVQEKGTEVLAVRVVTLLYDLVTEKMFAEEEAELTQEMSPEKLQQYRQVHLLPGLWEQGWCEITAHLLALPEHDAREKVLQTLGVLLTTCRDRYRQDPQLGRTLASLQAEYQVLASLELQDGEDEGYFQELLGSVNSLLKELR
UniProt Q96JX3: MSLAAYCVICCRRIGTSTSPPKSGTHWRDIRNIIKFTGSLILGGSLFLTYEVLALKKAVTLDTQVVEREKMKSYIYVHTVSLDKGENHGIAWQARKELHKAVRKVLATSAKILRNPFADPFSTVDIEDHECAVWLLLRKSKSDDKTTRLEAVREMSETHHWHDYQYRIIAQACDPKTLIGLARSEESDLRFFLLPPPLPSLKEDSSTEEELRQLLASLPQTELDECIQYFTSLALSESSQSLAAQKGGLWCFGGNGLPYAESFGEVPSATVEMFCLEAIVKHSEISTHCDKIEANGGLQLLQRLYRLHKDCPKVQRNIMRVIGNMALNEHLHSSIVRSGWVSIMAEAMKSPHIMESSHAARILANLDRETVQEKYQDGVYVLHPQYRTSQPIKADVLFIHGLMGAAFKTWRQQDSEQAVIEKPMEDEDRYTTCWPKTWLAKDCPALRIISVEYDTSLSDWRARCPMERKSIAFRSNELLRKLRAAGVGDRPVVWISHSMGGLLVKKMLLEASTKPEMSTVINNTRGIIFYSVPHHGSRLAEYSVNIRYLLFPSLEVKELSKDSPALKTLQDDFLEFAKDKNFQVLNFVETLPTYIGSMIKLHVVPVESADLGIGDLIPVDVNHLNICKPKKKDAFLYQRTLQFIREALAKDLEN
UniProt Q99574: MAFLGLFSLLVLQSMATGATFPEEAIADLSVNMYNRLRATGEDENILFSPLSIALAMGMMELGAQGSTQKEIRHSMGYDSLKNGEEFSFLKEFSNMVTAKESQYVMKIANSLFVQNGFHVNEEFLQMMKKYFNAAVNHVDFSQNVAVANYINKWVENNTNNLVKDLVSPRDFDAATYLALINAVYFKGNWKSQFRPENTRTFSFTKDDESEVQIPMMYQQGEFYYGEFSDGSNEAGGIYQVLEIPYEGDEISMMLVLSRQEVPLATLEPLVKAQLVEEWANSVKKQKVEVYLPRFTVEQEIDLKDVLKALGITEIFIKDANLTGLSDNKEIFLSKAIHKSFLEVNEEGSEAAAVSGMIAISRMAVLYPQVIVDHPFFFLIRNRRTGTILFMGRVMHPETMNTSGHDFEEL
UniProt Q8IX90, whole entry, looked up: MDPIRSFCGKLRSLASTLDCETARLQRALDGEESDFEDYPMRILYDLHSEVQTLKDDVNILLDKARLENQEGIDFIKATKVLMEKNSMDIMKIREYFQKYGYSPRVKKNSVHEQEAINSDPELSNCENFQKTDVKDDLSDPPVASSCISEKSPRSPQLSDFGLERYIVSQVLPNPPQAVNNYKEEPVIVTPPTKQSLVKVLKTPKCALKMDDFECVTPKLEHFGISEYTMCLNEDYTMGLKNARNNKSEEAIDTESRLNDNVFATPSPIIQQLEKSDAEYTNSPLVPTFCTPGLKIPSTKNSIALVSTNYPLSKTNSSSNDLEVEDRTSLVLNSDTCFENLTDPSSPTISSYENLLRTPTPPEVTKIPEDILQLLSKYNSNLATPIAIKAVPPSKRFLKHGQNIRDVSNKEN
UniProt Q8TBC3: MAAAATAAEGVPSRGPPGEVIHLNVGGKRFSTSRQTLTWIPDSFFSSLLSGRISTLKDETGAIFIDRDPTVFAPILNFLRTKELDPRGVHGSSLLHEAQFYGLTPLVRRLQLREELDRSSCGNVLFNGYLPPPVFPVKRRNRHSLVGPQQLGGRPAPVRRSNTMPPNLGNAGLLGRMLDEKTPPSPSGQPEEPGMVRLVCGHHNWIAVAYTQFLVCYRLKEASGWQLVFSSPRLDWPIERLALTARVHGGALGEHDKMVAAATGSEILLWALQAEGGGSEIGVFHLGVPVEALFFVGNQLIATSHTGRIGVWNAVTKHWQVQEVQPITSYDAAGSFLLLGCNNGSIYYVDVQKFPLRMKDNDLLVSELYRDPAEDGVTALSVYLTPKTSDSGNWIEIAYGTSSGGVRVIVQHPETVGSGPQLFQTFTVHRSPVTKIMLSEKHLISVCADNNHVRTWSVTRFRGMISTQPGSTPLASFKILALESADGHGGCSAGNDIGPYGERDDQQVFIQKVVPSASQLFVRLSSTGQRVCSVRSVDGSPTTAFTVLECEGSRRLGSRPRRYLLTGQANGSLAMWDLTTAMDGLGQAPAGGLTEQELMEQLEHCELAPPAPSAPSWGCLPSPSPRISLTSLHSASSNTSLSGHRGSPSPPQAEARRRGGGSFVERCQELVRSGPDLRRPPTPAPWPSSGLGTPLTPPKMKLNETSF
UniProt Q7L8J4: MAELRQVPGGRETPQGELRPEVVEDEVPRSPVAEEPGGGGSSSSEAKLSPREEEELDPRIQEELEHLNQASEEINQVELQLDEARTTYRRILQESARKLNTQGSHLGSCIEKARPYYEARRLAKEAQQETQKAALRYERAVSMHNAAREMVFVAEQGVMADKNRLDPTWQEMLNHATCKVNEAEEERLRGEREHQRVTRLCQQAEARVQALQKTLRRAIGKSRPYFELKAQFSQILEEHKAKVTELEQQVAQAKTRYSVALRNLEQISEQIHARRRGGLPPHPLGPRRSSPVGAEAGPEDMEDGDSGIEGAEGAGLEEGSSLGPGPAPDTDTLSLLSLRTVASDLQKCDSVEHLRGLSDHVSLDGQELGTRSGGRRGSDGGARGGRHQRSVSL
UniProt Q15459: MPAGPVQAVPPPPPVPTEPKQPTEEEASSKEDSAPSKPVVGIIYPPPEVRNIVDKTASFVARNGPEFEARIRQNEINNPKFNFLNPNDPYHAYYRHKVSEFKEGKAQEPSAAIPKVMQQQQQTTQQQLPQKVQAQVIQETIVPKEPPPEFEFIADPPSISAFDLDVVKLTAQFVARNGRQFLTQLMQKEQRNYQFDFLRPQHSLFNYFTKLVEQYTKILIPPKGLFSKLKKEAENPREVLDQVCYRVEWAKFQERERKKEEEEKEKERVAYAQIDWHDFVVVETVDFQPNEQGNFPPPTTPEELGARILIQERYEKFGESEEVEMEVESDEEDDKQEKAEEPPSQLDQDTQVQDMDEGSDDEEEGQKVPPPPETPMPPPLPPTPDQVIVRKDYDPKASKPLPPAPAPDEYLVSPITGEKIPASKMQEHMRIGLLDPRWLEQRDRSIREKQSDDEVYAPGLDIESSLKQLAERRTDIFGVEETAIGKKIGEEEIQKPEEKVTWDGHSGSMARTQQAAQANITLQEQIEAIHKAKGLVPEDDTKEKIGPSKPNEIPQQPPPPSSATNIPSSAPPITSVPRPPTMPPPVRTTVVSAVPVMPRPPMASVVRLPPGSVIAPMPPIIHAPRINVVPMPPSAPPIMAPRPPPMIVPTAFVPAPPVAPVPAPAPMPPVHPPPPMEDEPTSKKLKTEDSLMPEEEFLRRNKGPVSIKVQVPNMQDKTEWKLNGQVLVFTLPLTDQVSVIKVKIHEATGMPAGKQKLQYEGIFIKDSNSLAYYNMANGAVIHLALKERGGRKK
UniProt Q9UQ13: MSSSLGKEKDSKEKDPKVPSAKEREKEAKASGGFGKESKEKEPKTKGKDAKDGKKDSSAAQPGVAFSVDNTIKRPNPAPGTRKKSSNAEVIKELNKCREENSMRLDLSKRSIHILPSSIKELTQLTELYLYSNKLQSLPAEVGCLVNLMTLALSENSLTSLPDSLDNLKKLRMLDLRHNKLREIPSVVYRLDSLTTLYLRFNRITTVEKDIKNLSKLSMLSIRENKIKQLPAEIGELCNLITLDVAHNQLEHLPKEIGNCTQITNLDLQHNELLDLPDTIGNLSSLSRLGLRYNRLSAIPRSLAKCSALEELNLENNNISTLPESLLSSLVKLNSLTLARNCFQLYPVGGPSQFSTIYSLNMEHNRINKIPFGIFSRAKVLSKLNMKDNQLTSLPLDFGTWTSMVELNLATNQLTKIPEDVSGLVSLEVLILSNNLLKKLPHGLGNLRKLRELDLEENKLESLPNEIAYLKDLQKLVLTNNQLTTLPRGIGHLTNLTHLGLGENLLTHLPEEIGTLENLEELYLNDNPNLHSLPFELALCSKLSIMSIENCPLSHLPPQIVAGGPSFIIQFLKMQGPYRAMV
UniProt Q92599: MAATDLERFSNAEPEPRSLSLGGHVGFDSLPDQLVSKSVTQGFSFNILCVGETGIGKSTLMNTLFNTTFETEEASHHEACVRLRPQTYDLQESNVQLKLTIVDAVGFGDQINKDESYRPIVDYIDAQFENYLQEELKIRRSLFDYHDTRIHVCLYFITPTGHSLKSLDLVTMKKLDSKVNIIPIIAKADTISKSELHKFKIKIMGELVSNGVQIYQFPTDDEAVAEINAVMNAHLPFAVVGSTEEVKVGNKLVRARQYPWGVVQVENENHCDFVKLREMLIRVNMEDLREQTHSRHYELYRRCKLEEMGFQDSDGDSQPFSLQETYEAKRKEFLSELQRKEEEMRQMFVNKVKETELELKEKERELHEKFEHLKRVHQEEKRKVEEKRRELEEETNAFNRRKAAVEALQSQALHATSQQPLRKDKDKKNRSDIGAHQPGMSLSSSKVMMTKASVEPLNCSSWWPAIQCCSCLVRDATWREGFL
UniProt Q9P0V9: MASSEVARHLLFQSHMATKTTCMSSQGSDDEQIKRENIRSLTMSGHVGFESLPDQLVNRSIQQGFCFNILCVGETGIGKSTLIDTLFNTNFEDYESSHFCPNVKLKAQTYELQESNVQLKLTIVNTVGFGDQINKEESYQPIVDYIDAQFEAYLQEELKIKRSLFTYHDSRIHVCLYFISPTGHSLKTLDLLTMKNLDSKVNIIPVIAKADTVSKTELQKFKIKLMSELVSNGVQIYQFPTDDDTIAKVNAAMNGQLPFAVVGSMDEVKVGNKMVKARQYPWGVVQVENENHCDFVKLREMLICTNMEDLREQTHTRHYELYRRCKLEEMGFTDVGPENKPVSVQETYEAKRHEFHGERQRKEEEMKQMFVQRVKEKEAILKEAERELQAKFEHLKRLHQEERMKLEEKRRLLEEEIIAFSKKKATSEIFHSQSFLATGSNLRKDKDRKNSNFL

The list shows a part of the results.

Compound in this test: c1cn2cc(-c3ccc4cn[nH]c4c3)nc(Nc3ccc(N4CCOCC4)cc3)c2n1 [entospletinib]
Briefly: log2 fold change, soluble protein after heating vs DMSO (PISA); higher = thermal stabilisation; K562 cells, 10 uM, 30 min; active = over 0.2 and 3.5 SD of the protein, either way, in both replicates (recomputed). In short, it runs like this:
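K562 cells (2×10^6 cells/mL) were treated with 10 μM compound for 30 min, and aliquots were heated for 3 min over 48°C-58°C. Pooled aliquots were extracted in PBS with 0.5% NP-40 at 4°C, and the supernatant after 21,000xg for 90 min was measured by TMTpro 16plex LC-MS/MS with channel sums equalised. Reported thermal stability, relative to control samples and from duplicates, is a log2 fold change.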
Take SERGEF (UniProt Q9UGK8): the log2 fold change was inactive: 0.034.

SGTA (UniProt O43765): the log2 fold change was inactive: 0.

Take SIGMAR1 (UniProt Q99720): the log2 fold change was inactive: -0.067.

For the target SH3BGRL2 (UniProt Q9UJC5), the log2 fold change was inactive: 0.038.

Turning to SH3BGRL (UniProt O75368), the log2 fold change is inactive: -0.01.

Consider SERPINB9 (UniProt P50453), for which the log2 fold change is inactive: 0.007.

For SEPTIN9 (UniProt Q9UHD8), the log2 fold change was inactive: -0.042.

For SIL1 (UniProt Q9H173), the log2 fold change was inactive: -0.015.

In the case of SFXN4 (UniProt Q6P4A7), the log2 fold change is inactive: 0.005.

Turning to SEMA4C (UniProt Q9C0C4), the log2 fold change was inactive: 0.077.

In the case of SFXN2 (UniProt Q96NB2), the log2 fold change is inactive: 0.038.

Take SERAC1 (UniProt Q96JX3): the log2 fold change was inactive: 0.159.

Consider SFN (UniProt P31947), for which the log2 fold change is inactive: -0.014.

SEPTIN2 (UniProt B5MCX3): the log2 fold change is inactive: 0.104.

Turning to SERPINI1 (UniProt Q99574), the log2 fold change was inactive: -0.196.

Regarding SKA3 (UniProt Q8IX90), the log2 fold change was inactive: 0.079.

In the case of SHKBP1 (UniProt Q8TBC3), the log2 fold change is inactive: -0.034.

For the target SH3BP5L (UniProt Q7L8J4), the log2 fold change was inactive: -0.025.

On to SF3A1 (UniProt Q15459), for which the log2 fold change was inactive: 0.011.

On to SHOC2 (UniProt Q9UQ13), for which the log2 fold change is inactive: 0.051.

As for SEPTIN7 (UniProt Q16181), the log2 fold change was inactive: -0.045.

In the case of SEPTIN8 (UniProt Q92599), the log2 fold change is inactive: -0.026.

For the target SEPTIN10 isoform 2 (UniProt Q9P0V9), the log2 fold change is inactive: -0.01.
